Some entries share one result that the patent states for a list of compounds.
Molecular target: T1, LXRβ (Homo sapiens, UniProt P55055)
T1 construct: expressed in transfected cells; host or cells: CV-1 African green monkey kidney cells (ATCC CCL-70)
T1 sequence (P55055 1-460): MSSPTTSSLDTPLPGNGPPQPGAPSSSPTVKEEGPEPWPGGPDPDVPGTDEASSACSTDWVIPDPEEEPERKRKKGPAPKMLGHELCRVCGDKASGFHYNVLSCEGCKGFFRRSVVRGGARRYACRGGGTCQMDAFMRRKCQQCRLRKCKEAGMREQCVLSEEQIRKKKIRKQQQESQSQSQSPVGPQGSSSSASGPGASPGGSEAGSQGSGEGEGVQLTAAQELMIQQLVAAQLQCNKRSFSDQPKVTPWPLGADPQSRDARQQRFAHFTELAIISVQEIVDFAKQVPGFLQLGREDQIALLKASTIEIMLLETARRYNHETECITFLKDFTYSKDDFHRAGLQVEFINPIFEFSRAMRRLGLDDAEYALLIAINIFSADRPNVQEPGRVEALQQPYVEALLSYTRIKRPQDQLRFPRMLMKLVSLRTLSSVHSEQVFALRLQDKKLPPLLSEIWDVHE
T1 sequence (P19793 1-462 partner): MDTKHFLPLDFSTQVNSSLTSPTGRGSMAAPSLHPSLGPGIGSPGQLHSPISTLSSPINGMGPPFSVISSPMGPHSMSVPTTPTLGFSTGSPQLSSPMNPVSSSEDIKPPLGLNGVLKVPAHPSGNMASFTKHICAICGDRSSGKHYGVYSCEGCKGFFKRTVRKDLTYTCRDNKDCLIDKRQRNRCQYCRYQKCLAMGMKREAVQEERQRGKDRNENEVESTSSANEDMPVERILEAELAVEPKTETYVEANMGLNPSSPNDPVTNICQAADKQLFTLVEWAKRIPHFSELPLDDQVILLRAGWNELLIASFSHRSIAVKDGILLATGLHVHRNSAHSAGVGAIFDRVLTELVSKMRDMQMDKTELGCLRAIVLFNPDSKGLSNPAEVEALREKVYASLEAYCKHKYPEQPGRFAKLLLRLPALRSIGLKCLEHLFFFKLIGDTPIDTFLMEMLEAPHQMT
Test: Co-transfection assay (LXR/LXRE luciferase reporter), LXRβ
Type: cell-based
Conditions: CV-1 cells transfected with hLXRβ and LXRE luciferase reporter; agonist activity; read-out: EC50 value against LXRβ

| Compound | EC50 [µM] |
| --- | --- |
| CNS(=O)(=O)Cc1ccc(-c2ccc(OCc3ccc(C(F)(F)F)c(O)c3C(=O)OC(C)(C)C)cc2)cc1 [Example 29, tert-Butyl 2-hydroxy-6-{[(4′-{[(methylamino)sulfonyl]methyl}-1,1′-biphenyl-4-yl)oxy]methyl}-3-(trifluoromethyl)benzoate] | ≤ 3 |
| CC(C)(C)OC(=O)c1c(COc2ccc(-c3ncc(CC(=O)O)s3)cc2)ccc(C(F)(F)F)c1O [Example 30, [2-(4-{[2-(tert-Butoxycarbonyl)-3-hydroxy-4-(trifluoromethyl)benzyl]oxy}phenyl)-1,3-thiazol-5-yl]acetic acid] | ≤ 3 |
| CC(C)(C)OC(=O)c1c(COc2ccc(-c3cccc(S(C)(=O)=O)c3)cc2)ccc(C(F)(F)F)c1O [Example 31, tert-Butyl 2-hydroxy-6-({[3′-(methylsulfonyl)-1,1′-biphenyl-4-yl]oxy}methyl)-3-(trifluoromethyl)benzoate] | ≤ 3 |
| CCc1cc(CC(=O)O)ccc1-c1ccc(OCc2ccc(C(F)(F)F)c(O)c2C(=O)OC(C)(C)C)cc1 [Example 32, (4′-{[2-(tert-Butoxycarbonyl)-3-hydroxy-4-(trifluoromethyl)benzyl]oxy}-2-ethyl-1,1′-biphenyl-4-yl)acetic acid] | ≤ 3 |
| Cc1c(CC(=O)O)cccc1-c1ccc(OCc2ccc(C(F)(F)F)c(O)c2C(=O)OC(C)(C)C)cc1 [Example 33, (4′-{[2-(tert-Butoxycarbonyl)-3-hydroxy-4-(trifluoromethyl)benzyl]oxy}-2-methyl-1,1′-biphenyl-3-yl)acetic acid] | ≤ 3 |
| CC(C)(C)OC(=O)c1c(COc2ccc(-c3ncc(CC(=O)O)cn3)cc2)ccc(C(F)(F)F)c1O [Example 34, [2-(4-{[2-(tert-Butoxycarbonyl)-3-hydroxy-4-(trifluoromethyl)benzyl]oxy}phenyl)-5-pyrimidinyl]acetic acid] | ≤ 3 |
| CC(C)(C)OC(=O)c1c(COc2ccc(-c3ccc(CC(=O)O)cc3)nc2)ccc(C(F)(F)F)c1O [Example 36, [4-(5-{[2-(tert-Butoxycarbonyl)-3-hydroxy-4-(trifluoromethyl)benzyl]oxy}-2-pyridinyl)phenyl]acetic acid] | ≤ 3 |
| CC(C)(C)OC(=O)c1c(COc2ccc(-c3ccc(CC(=O)O)cc3[N+](=O)[O-])cc2)ccc(C(F)(F)F)c1O [Example 37, (4′-{[2-(tert-Butoxycarbonyl)-3-hydroxy-4-(trifluoromethyl)benzyl]oxy}-2-nitro-1,1′-biphenyl-4-yl)acetic acid] | ≤ 3 |
| CC(C)(C)OC(=O)c1c(COc2ccc(-c3ccc(CC(=O)O)cc3N)cc2)ccc(C(F)(F)F)c1O [Example 38, (2-Amino-4′-{[2-(tert-butoxycarbonyl)-3-hydroxy-4-(trifluoromethyl)benzyl]oxy}-1,1′-biphenyl-4-yl)acetic acid] | ≤ 3 |
| CN(C)c1cc(CC(=O)O)ccc1-c1ccc(OCc2ccc(C(F)(F)F)c(O)c2C(=O)OC(C)(C)C)cc1 [Example 39, [4′-{[2-(tert-Butoxycarbonyl)-3-hydroxy-4-(trifluoromethyl)benzyl]oxy}-2-(dimethylamino)-1,1′-biphenyl-4-yl]acetic acid] | ≤ 3 |
| CC(=O)c1cc(CC(=O)O)ccc1-c1ccc(OCc2ccc(C(F)(F)F)c(O)c2C(=O)OC(C)(C)C)cc1 [Example 40, (2-Acetyl-4′-{[2-(tert-butoxycarbonyl)-3-hydroxy-4-(trifluoromethyl)benzyl]oxy}-1,1′-biphenyl-4-yl)acetic acid] | ≤ 3 |
| CC(C)(C)OC(=O)c1c(COc2ccc(-c3ccc(C(CO)C(=O)O)cc3)cc2)ccc(C(F)(F)F)c1O (stereo not shown) [Example 41, 2-(4′-{[2-(tert-Butoxycarbonyl)-3-hydroxy-4-(trifluoromethyl)benzyl]oxy}-1,1′-biphenyl-4-yl)-3-hydroxypropanoic acid] | ≤ 3 |
| CC(C)c1cc(CC(=O)O)ccc1-c1ccc(OCc2ccc(C(F)(F)F)c(O)c2C(=O)OC(C)(C)C)cc1 [Example 42, (4′-{[2-(tert-Butoxycarbonyl)-3-hydroxy-4-(trifluoromethyl)benzyl]oxy}-2-isopropyl-1,1′-biphenyl-4-yl)acetic acid] | ≤ 3 |
| CC(C)(C)OC(=O)c1c(COc2ccc(-c3ccc(C(=O)O)cc3)cc2)ccc(C(F)(F)F)c1O [Example 43, 4′-{[2-(tert-Butoxycarbonyl)-3-hydroxy-4-(trifluoromethyl)benzyl]oxy}-1,1′-biphenyl-4-carboxylic acid] | ≤ 3 |
| CC(C)(C)OC(=O)c1c(COc2ccc(-c3ccc(CC(=O)O)c(C(F)(F)F)c3)cc2)ccc(C(F)(F)F)c1O [Example 44, (4′-{[2-(tert-Butoxycarbonyl)-3-hydroxy-4-(trifluoromethyl)benzyl]oxy}-3-trifluoromethyl-1,1′-biphenyl-4-yl)acetic acid] | ≤ 3 |
| CC(C)(C)OC(=O)c1c(COc2ccc(-c3ccc(CC(=O)O)cc3C=O)cc2)ccc(C(F)(F)F)c1O [Example 45, (4′-{[2-(tert-Butoxycarbonyl)-3-hydroxy-4-(trifluoromethyl)benzyl]oxy}-2-formyl-1,1′-biphenyl-4-yl)acetic acid] | ≤ 3 |
| CC(C)(C)OC(=O)c1c(COc2ccc(-c3ccc(CC(=O)O)cc3CO)cc2)ccc(C(F)(F)F)c1O [Example 46, (4′-{[2-(tert-Butoxycarbonyl)-3-hydroxy-4-(trifluoromethyl)benzyl]oxy}-2-(hydroxymethyl)-1,1′-biphenyl-4-yl)acetic acid] | ≤ 3 |
| CC(C)(C)OC(=O)c1c(COc2ccc(-c3ccc(CC(=O)O)cc3C#N)cc2)ccc(C(F)(F)F)c1O [Example 47, (4′-{[2-(tert-Butoxycarbonyl)-3-hydroxy-4-(trifluoromethyl)benzyl]oxy}-2-cyano-1,1′-biphenyl-4-yl)acetic acid] | ≤ 3 |
| Cc1cc(OCc2ccc(C(F)(F)F)c(O)c2C(=O)OC(C)(C)C)ccc1-c1ccc(CC(=O)O)cc1 [Example 48, (4′-{[2-(tert-Butoxycarbonyl)-3-hydroxy-4-(trifluoromethyl)benzyl]oxy}-2′-methyl-1,1′-biphenyl-4-yl)acetic acid] | ≤ 3 |
| CN(C)C(=O)Cc1ccc(-c2ccc(OCc3ccc(C(F)(F)F)c(O)c3C(=O)OC(C)(C)C)cc2)cc1 [Example 49, tert-Butyl 6-[({4′-[2-(dimethylamino)-2-oxoethyl]-1,1′-biphenyl-4-yl}oxy)methyl]-2-hydroxy-3-(trifluoromethyl)benzoate] | ≤ 3 |
| CNC(=O)Cc1ccc(-c2ccc(OCc3ccc(C(F)(F)F)c(O)c3C(=O)OC(C)(C)C)cc2)cc1 [Example 50, tert-Butyl 2-hydroxy-6-[({4′-[2-(methylamino)-2-oxoethyl]-1,1′-biphenyl-4-yl}oxy)methyl]-3-trifluoromethylbenzoate] | ≤ 3 |
| COc1ccc(COc2ccc(-c3ccc(CC(=O)O)cc3)cc2)c(C(=O)OC(C)(C)C)c1O [Example 51, (4′-{[2-(tert-Butoxycarbonyl)-3-hydroxy-4-methoxybenzyl]oxy}-1,1′-biphenyl-4-yl)acetic acid] | ≤ 3 |
| CC(C)(C)OC(=O)c1c(COc2ccc(-c3cc(CC(=O)O)ccc3F)cc2)ccc(C(F)(F)F)c1O [Example 52, (4′-{[2-(tert-Butoxycarbonyl)-3-hydroxy-4-(trifluoromethyl)benzyl]oxy}-6-fluoro-1,1′-biphenyl-3-yl)acetic acid] | ≤ 3 |
| CC(C)(C)OC(=O)c1c(COc2ccc(-c3ccc(C(O)C(=O)O)cc3)cc2)ccc(C(F)(F)F)c1O (stereo not shown) [Example 53, (4′-{[2-(tert-Butoxycarbonyl)-3-hydroxy-4-(trifluoromethyl)benzyl]oxy}-1,1′-biphenyl-4-yl)(hydroxy)acetic acid] | ≤ 3 |
| CCOC(C(=O)O)c1ccc(-c2ccc(OCc3ccc(C(F)(F)F)c(O)c3C(=O)OC(C)(C)C)cc2)cc1 (stereo not shown) [Example 54, (4′-{[2-(tert-Butoxycarbonyl)-3-hydroxy-4-(trifluoromethyl)benzyl]oxy}-1,1′-biphenyl-4-yl)(ethoxy)acetic acid] | ≤ 3 |
| CC(C)(C)OC(=O)c1c(COc2ccc(-c3cccc(CCC(=O)O)c3)cc2)ccc(C(F)(F)F)c1O [Example 55, 3-(4′-{[2-(tert-Butoxycarbonyl)-3-hydroxy-4-(trifluoromethyl)benzyl]oxy}-1,1′-biphenyl-3-yl)propanoic acid] | ≤ 3 |
| CC(C)(C)OC(=O)c1c(COc2ccc(-c3cc(F)cc(CC(=O)O)c3)cc2)ccc(C(F)(F)F)c1O [Example 56, (4′-{[2-(tert-Butoxycarbonyl)-3-hydroxy-4-(trifluoromethyl)benzyl]oxy}-5-fluoro-1,1′-biphenyl-3-yl)acetic acid] | ≤ 3 |
| CN(C)S(=O)(=O)Cc1ccc(-c2ccc(OCc3ccc(C(F)(F)F)c(O)c3C(=O)OC(C)(C)C)cc2)cc1 [Example 57] | ≤ 3 |
